Assay results: PMC12711160 (Chemmedchem, 2025)
No constants are given. Whether binding was seen depends on the method and setting. In cells and extracts the contact can be indirect. Some results given as binding are weak or reduced against the parent protein; the word gives no strength.

Protein sequences, listed by entry. Tags and fused reporters are not part of them.
UniProt P50391: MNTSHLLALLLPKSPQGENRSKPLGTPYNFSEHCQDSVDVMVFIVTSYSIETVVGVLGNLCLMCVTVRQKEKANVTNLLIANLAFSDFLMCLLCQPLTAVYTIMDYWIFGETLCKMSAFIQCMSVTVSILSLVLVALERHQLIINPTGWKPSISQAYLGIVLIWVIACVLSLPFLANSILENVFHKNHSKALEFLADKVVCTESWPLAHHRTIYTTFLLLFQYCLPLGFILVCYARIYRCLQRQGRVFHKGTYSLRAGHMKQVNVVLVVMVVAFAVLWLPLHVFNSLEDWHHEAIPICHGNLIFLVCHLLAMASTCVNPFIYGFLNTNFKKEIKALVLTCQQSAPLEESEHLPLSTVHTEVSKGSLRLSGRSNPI
UniProt P32121: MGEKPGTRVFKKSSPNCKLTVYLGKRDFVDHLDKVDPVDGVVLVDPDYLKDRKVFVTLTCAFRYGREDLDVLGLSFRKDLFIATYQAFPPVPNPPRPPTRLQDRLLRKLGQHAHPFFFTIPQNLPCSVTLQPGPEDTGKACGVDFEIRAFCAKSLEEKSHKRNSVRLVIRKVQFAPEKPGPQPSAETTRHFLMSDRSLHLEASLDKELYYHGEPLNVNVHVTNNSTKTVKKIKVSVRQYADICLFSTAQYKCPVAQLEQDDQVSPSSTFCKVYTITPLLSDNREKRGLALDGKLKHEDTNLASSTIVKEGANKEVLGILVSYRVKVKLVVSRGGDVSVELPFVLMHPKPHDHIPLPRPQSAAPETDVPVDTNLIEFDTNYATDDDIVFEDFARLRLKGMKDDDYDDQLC

Columns and labels:
hY4R‐eYFP (human) [1] = biological target: hY4R‐eYFP (human) (UniProt P50391); assay: FRET or BRET; NanoBRET in transiently transfected HEK293 cells expressing hY1/2/4R-eYFP and Nluc-arr3; read 15 min after stimulation with increasing peptide concentrations (native ligands NPY or hPP, [F7,P34]-NPY, conjugates); BRET buffer (HBSS, 25 mM HEPES, pH 7.3), 37 °C
hY4R‐eYFP (human) [2] = biological target: hY4R‐eYFP (human) (UniProt P50391); assay: condition: only cells stimulated with conjugate 6 or 8; FRET or BRET; NanoBRET in transiently transfected HEK293 cells expressing hY1/2/4R-eYFP and Nluc-arr3; cells stimulated 15 min with the multiply loaded conjugates 6, 7 or 8; BRET buffer (HBSS, 25 mM HEPES, pH 7.3), 37 °C

For “Nluc‐arr3 (arrestin‐3) (from UniProt P32121 1-409)”, the binding (hY4R‐eYFP (human) [1]) was “binds” and the binding (hY4R‐eYFP (human) [2]) was “no binding”.
